This is one part of the list. Further columns of the screen follow, without active or inactive calls. Most of these compounds were active or inconclusive in the main read-out, so they are no random draw. Words in brackets tell the shape of the fitted curve; partial curves, single points and poor fits give uncertain potencies.
Test: qHTS Assay for Lipid Storage Modulators in Drosophila S3 Cells;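 for cell number change: cells counted by Cell Tracker Red CMTPX staining in the red channel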
Conditions: BODIPY lipid droplet fluorescence, 18-24 h; for cell number change: measured here: cell count max response, cells fed with added oleic acid
Summary of the method: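 Drosophila S3 cells got compounds at several concentrations plus oleic acid (400 uM solution). Laser-scanning cytometry with 488 nm excitation read lipid droplets at 500-530 nm and cells at 575-640 nm. Percent activity was relative to 20 uM Triacsin C.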

[1] = measured here: cell number channel AC50, cells fed with added oleic acid
[2] = measured here: lipid fluorescence (Fed channel) AC50, cells fed with added oleic acid

SMILES | cell number change [%] | AC50 [1] | AC50 [2]
COc1ccc(OC)c(C(=O)CSc2nc3ncccc3[nH]2)c1 | 90.7 | 29.1 µM [rising, single point] | –
O=C(O)C(Cc1c[nH]c2ccccc12)N1C(=O)C2C3c4ccccc4C(c4ccccc43)C2C1=O (stereo unspecified) | 39.7 | – | 20.6 µM [rising, single point]
CC[C@@H]1[C@H]2CCCC(=O)N3CC[C@@H](C[C@@H]1Nc1ccccc1)[C@@H]23 | 11.4 | – | 6.51 µM [falling, single point]
CNC(=O)c1[nH]cnc1C(=O)Nc1cccc(C)c1 | 8.02 | – | 20.6 µM [rising, single point]
Cc1[nH][nH]c(=O)c1N=Nc1ccccc1 | 99.5 | 25.9 µM [rising, single point] | –
CCN1CCN(S(=O)(=O)c2cccc([N+](=O)[O-])c2)CC1 | -8.03 | – | –
c1ccc(Sc2cccc3ccccc23)c(CNC2=NCCN2)c1 | – | – | 0.0731 µM [falling, full curve, poor fit]
Cc1nccn1CCc1nc(N)nc(N)n1 | -95.3 | 5.8 µM [falling, full curve] | 29.1 µM [falling, partial curve]
CCOc1ccc(NC(=O)CCNS(=O)(=O)c2ccc3c(c2)c(=O)n(C)c(=O)n3C)cc1 | 5.16 | – | –
O=C(Cc1ccccc1)Nc1ncccn1 | -18.4 | – | 23.1 µM [falling, partial curve, poor fit]
Cc1cc(C)nc(Sc2ccc(C=O)cc2[N+](=O)[O-])n1 | 4.41 | – | –
OCC[C@H]1C[C@@H](O)[C@H](O)[C@]2(CCCCO2)O1 | -5.6 | – | –
O=C(COC(=O)c1cc([N+](=O)[O-])ccc1N1CCOCC1)Nc1ccccc1OC(F)F | – | 3.26 µM [rising, single point] | 6.51 µM [rising, single point]
CCN(CCn1cccn1)C(=O)CCc1nnc(C2(c3ccc(Cl)cc3)CCC2)o1 | -1.87 | – | 0.58 µM [falling, single point]
Nc1c(C(=O)c2ccco2)oc2ccccc12 | 13.5 | 0.0517 µM [rising, full curve, poor fit] | –
COc1cc2c(cc1OC)C(c1ccccc1O)N(C1CC(=O)N(c3ccccc3)C1=O)CC2 (stereo unspecified) | -10.6 | – | 1.84 µM [rising, partial curve]
O=C1C2ON(c3ccccc3)C(c3ccncc3)C2C(=O)N1c1ccccc1 (stereo unspecified) | – | 3.66 µM [rising, single point] | 2.59 µM [rising, single point]
CC(C)(C)NC1=CC(=O)OC12CCCCC2 | -19.8 | – | 1.46 µM [falling, partial curve, poor fit]
CCOC(=O)c1ccc(NC(=S)N2CCC(C(N)=O)CC2)cc1 | 12.1 | – | 23.1 µM [rising, single point]
O=S(=O)(c1ccc(SCc2ccccc2)nc1)N1CCCCCC1 | -3.76 | – | 16.4 µM [falling, single point]

An excerpt from above in order of count of non-hydrogen atoms, descending:
SMILES | cell number change [%] | AC50 [1] | AC50 [2]
CCOc1ccc(NC(=O)CCNS(=O)(=O)c2ccc3c(c2)c(=O)n(C)c(=O)n3C)cc1 | 5.16 | – | –
CCN(CCn1cccn1)C(=O)CCc1nnc(C2(c3ccc(Cl)cc3)CCC2)o1 | -1.87 | – | 0.58 µM [falling, single point]
CC[C@@H]1[C@H]2CCCC(=O)N3CC[C@@H](C[C@@H]1Nc1ccccc1)[C@@H]23 | 11.4 | – | 6.51 µM [falling, single point]

(cont.)

SMILES | cell number change [%] | AC50 [1] | AC50 [2]
S=c1[nH]nc(COc2ccccc2)n1/N=C/c1cccc(Br)c1 | -46.2 | 18.4 µM [falling, single point] | 16.4 µM [falling, single point]
COc1ccc(OC)c(CN(CCN2CCOCC2)C(=O)Nc2cccc(Cl)c2)c1 | -2.9 | 3.66 µM [rising, single point] | –
Cc1ccc(CS(=O)(=O)c2nsc(C)c2C#N)cc1 | 20.6 | – | 6.51 µM [falling, single point]
O=C(Cn1cnc2ccccc2c1=O)c1ccc2c(c1)OCCO2 | 2.75 | – | 0.0259 µM [falling, full curve, poor fit]
O=C(NCCc1ccccc1Cl)C1CC(=O)N(C2CCCCC2)C1 (stereo unspecified) | -11.4 | – | 6.51 µM [rising, single point]
CCN(CC)CC(=O)NC1CC(C)(C)Cc2c1cnn2-c1ccc(F)cc1 (stereo unspecified) | -11 | – | –
O=C(Nc1ccccc1)N1CCN(c2ncccn2)CC1 | – | – | 0.58 µM [falling, single point]
COc1ccc(/C=C/c2c([N+](=O)[O-])c(=O)n(C)c(=O)n2C)c(OC)c1 | 65.4 | 29.1 µM [rising, single point] | –
CC1=NN(c2ccc(C)cc2)C(=O)/C1=C\c1ccc(Br)s1 | -9.22 | – | 29.1 µM [falling, single point]
CCOc1ccc(NC(=O)CSc2nnc(-c3ccco3)n2C)cc1 | 17.7 | 0.92 µM [rising, full curve, poor fit] | –
Cc1cc(C)c(S(=O)(=O)Nc2cccc(/C=C/C(=O)O)c2)c(C)c1 | -49.1 | 29.1 µM [falling, single point] | 25.9 µM [falling, single point]
Cc1ccc(N/N=C(/Sc2nnnn2-c2ccccc2)C(=O)c2ccccc2)cc1 | 7.94 | – | 18.4 µM [rising, partial curve]
CCOC(=O)Cn1nnnc1CN1CCN(c2ccc(OC)cc2)CC1 | -12.7 | – | 0.651 µM [falling, full curve]
COc1ccc(CNC(=O)COC(=O)c2ccc3ncsc3c2)cc1OC | -52.9 | 16.4 µM [falling, partial curve] | –
CSCC(=O)NC1CCCc2c1cnn2-c1cc(F)cc(F)c1 (stereo unspecified) | -56.9 | 14.6 µM [falling, partial curve] | 8.2 µM [falling, partial curve]
O=C(NC1CCCC1)C1CCCN1C(=O)Nc1ccccc1Cl (stereo unspecified) | -31.3 | 20.6 µM [falling, single point] | 29.1 µM [falling, single point]
NC(=O)c1nsc(C(=O)N(CC(=O)NC2CCCC2)c2cccc(C(F)(F)F)c2)c1N | -12.5 | – | 29.1 µM [rising, single point]
CC(=O)C1=C(O)C(=O)N(CC(=O)O)C1c1ccccc1Cl (stereo unspecified) | -19.6 | – | 2.91 µM [falling, full curve]
CCn1c(-c2csc3c2CCCC3)n[nH]c1=S | 7.72 | – | 29.1 µM [rising, single point]

Reference: PubChem BioAssay AID2685 (National Center for Advancing Translational Sciences (NCATS), 2010)
